Results taken from patent publication US20140220040A1.
Results are given in words; binding and its absence hold for the method and conditions named. Some binding calls cover weakened binding; strength is not graded here.

Sequences of proteins named here, by UniProt entry; tags and fusion partners are left off. A change or cut given only in a name is not applied to a line headed by its entry.
UniProt O75581: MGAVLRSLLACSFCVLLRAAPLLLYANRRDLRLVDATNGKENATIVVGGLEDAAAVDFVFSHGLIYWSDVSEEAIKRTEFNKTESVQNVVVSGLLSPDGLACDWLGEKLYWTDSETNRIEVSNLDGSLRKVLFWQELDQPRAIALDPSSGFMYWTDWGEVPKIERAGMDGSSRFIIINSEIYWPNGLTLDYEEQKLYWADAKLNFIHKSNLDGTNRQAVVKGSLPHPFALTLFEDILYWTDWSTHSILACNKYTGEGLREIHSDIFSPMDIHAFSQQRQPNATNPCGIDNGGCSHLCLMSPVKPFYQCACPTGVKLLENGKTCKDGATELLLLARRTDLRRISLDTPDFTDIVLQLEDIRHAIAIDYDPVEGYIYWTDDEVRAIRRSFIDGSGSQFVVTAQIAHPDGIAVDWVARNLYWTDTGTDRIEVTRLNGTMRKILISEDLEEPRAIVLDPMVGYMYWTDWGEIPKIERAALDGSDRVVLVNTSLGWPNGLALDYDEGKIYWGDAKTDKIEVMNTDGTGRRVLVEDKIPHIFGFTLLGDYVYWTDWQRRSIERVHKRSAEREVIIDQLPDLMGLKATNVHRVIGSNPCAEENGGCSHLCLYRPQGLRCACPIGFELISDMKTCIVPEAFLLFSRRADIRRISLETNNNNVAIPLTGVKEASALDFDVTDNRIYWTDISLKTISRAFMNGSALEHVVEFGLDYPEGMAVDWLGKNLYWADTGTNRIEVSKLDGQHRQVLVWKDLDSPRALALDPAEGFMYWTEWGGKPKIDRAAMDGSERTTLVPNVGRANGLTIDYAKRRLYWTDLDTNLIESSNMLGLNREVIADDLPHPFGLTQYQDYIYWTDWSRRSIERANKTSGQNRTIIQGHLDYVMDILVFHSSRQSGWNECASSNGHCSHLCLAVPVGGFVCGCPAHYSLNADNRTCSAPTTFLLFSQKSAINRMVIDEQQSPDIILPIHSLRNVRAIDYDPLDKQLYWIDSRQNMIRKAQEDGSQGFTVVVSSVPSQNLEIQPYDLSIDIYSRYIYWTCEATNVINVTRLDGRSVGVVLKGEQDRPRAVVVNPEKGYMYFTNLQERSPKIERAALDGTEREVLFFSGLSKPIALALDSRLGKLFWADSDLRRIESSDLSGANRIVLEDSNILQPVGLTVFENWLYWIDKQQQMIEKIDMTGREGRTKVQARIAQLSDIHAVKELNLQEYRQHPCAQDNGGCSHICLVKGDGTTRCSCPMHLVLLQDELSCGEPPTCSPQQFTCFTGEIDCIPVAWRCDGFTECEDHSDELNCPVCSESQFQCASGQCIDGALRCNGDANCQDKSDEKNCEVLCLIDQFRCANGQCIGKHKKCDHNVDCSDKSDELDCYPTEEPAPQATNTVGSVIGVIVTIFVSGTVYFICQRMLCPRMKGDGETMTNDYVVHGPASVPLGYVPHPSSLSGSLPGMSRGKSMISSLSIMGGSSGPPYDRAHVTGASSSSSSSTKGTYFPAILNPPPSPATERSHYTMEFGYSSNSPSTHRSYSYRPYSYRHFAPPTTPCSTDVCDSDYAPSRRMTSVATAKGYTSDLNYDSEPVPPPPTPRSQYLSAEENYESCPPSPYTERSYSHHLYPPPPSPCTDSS

Each binder was assayed against HA-tagged full-length human LRP6 expressed on 293 / 293 T cells (human) (UniProt O75581) (assay: FACS on 293 T cells transfected with HA-tagged hLRP6).

Binder | binding
anti-LRP6 monoclonal antibody 413.1 (antibody, V domains shown) VH: EIQLQQSGPELVKPGASVKVSCKASGYAFTSYNMYWVKQSHGKGLEWIGYIDPYNGGTDSNQNFKGKATLTVDKSSSTAFMHLNSLTSEDSAVYYCARGGMGLRRDHFDYWGQGTSLTVSS VL: QIVLTQSPAIMSASPGEKVTISCSANSSVRYMFWYQQKPGSFPKPWTYRTSNLASGVPARFSGSGSGTSYSLTISSMEAEDVATYYCQQYHSYPWTFGGGTKLEI | binds
anti-LRP6 monoclonal antibody 421.1 (antibody, V domains shown) VH: QVQLQQSGPELVKPGASVRISCKASGYTFTTYYIHWLKQRPGQGLEWIGWIFPGNVNTKYNAKFKGKATLTADKSSSTAYMQLSSLTSEDSAVYFCAREELQYYFDYWGQGSTLTVSS VL: QIVLTQSPAIMSASPGEKVTISCSANSSVRFMFWYQQKPGSSPKPLIYRTSNLASGVPARFSGCGSGTSYSLTISSMEAEDAATYYCQQYHSYPWTFGGGTKLEI | binds

Continued, values first:

binding | Binder
binds | anti-LRP6 monoclonal antibody 1213.2 (antibody, V domains shown) VH: DVNLVESGGGLVKLGGSLKLSCAASGFTFSSFYMSWVRQTPEKRLDLVATINTNGGSTYYSDTVKGRFTISRDNAKNTLYLQMNSLKSEDTALFYCVRQPYYGGTMDYWGQGTSVTVSS VL: DIVLTQSPATLSVTPGDRVSLSCRASQSINNNLHWYQQKSHESPRLLIKYASQSISGIPSRFSGSGSGTDFTLSINSVETEDFGMYFCQQTNNWPLTFGAGTKLEL
binds | anti-LRP6 monoclonal antibody 856.6 (antibody, V domains shown) VH: QVQLQQSGPELVKPGASVRISCKASGYTFTTYYIHWLKQRPGQGLEWIGWIFPGNVNTKYNAKFKGKATLTADKSSSTAYMQLSSLTSEDSAVYFCAREGLQYYFDYWGQGTTLTVSS VL: QIVLTQSPAIMSASPGEKVTISCSANSSVRFMFWYQQKPGSSPKPLIYRTSNLASGVPARFSGSGSGTSYSLTISSMEAEDAATYYCQQYHSYPWTFGGGTKLEI
binds | anti-LRP6 monoclonal antibody 1293.11 (antibody, V domains shown) VH: QVQLQQSGPELVKPGASVRISCKASGYTFTTYYIHWLKQRPGQGLEWIGWIFPGNVNTKYNAKFKGKATLTADKSSSTAYMQLSSLTSEDSAVYFCAREELQYYFDYWGQGSALTVSS VL: QIVLTQSPAIMSASPGEKVTISCSANSSVRFMFWYQQKPGSSPKPLIYRTSNLASGVPARFSGSGSGTSYSLTISSMEAEDAATYYCQQYHSYPWTFGGGTKLEI
